The experiment has as its target α1L9'Tβ2γ2L, α1L9'T/V279Aβ2γ2L, and α1β2γ2L receptors. Put plainly: MWC model of channel gating, global fit to estimated open probability. Conditions: read-out: KG (dissociation constant for GABA); MWC model parameter, global optimisation.

Kd data for one compound are collected here from paper PMC7899671 (eLife, 2021).

pKd: −log10 of the molar value.

In the case of `NCCCC(=O)O` [GABA], the pKd was 4.28.
